The values below come from the supplement of paper PMC8256030.

“And” between values parts separate entries of the source, which are not always exact repeats. Equal entries are not always repeated. The list shows a part of the results. Repeats in this data set agree poorly, so a single value says little.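 HEK293T cells were given each compound shortly before transfection with a reporter in which red mCherry is followed by the SARS-CoV-2 frameshift element and then GFP in the −1 frame, so GFP appears only after frameshifting.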

The subject of this assay is HEK293T. The assay is described as follows: percent viability (nuclei count) relative to control; higher = more viable cells. The following applies: 10 µM; 24 h.
Take `CC(=O)O[C@H]1C(=O)[C@@]2(C)[C@H]([C@H](OC(=O)c3ccccc3)[C@]3(O)C[C@H](OC(=O)[C@H](O)[C@@H](NC(=O)c4ccccc4)c4ccccc4)C(C)=C1C3(C)C)[C@]1(OC(C)=O)CO[C@@H]1C[C@@H]2O` [Taxol]: the percent viability was determined as 19.3%.
The result for `Cc1cccc(C)c1NC(=O)CN(CC(=O)O)CC(=O)O` [lidofenin] reads 96.9%; that for `O=C(O)C(Cc1cc(I)c(O)c(I)c1)c1ccccc1` (stereo not drawn) [pheniodol], 132%.
For the compound `C[C@H](CS)C(=O)N1CCC[C@H]1C(=O)O` [captopril], the percent viability is 130% and 289%.
The figure for `N[C@@H](Cc1ccccc1)C(=O)O` [phenylalanine] is 116%; for `CC(=O)O[C@@H]1C[C@@H]2CC[C@@]1(C)C2(C)C` it is 240%; for `COCCCOc1ccnc(C[S+]([O-])c2nc3ccccc3[nH]2)c1C` (stereo not drawn) [rabeprazole] it is 144%.
The figure for `Nc1nc(F)nc2c1ncn2[C@@H]1O[C@H](COP(=O)(O)O)[C@@H](O)[C@@H]1O` is 275%; for `NC(CO)C(=O)NNCc1ccc(O)c(O)c1O` (stereo not drawn) [benserazide] it is 350% and 251%.
For the compound `CC1(C)[C@@H](O)CC[C@]2(C)[C@H]3C(=O)C=C4[C@@H]5C[C@@](C)(C(=O)O)CC[C@]5(C)CC[C@@]4(C)[C@]3(C)CC[C@@H]12` [enoxolone], the percent viability is 162%.
Turning to `CCCCCCCCCCCCCCCC(=O)OC[C@@H](O)[C@H]1OC[C@H](O)[C@H]1O` [sorbitan palmitate], the percent viability worked out at 145%.
The result for `O=C1[C@H]2CCCC[C@H]2C(=O)N1CCCCN1CCN(c2nsc3ccccc23)CC1` [perospirone] reads 130%; that for `CCc1c(Cl)c(O)c(Cl)c(O)c1C(=O)O[C@H]1[C@H](O)[C@H](OC)[C@H](OC/C2=C\C=C\C[C@H](O)/C(C)=C/[C@H](CC)[C@@H](O[C@@H]3OC(C)(C)[C@@H](OC(=O)C(C)C)[C@H](O)[C@@H]3O)/C(C)=C/C(C)=C/C[C@@H]([C@@H](C)O)OC2=O)O[C@@H]1C` [Fidaxomicin], 104%; that for `O=C(O)P(=O)(O)O` [foscarnet sodium], 355%.
For the compound `CNC[C@H](O)c1ccc(O)c(O)c1` [epinephrine], the percent viability was found to be 181%.
With `Cc1onc(-c2ccccc2)c1C(=O)N[C@@H]1C(=O)N2[C@@H]1SC(C)(C)[C@@H]2C(=O)O`, the percent viability was 221%.
In the case of `C[C@@H]1C/C=C/C=C/C=C/C=C/[C@H](O[C@@H]2O[C@H](C)[C@@H](O)[C@H](N)[C@@H]2O)C[C@@H]2O[C@](O)(C[C@@H](O)C[C@H]3O[C@@H]3/C=C/C(=O)O1)C[C@H](O)[C@H]2C(=O)O` [Pimaricin], the percent viability was determined as 243%.
With `CC(O)C(N)C(=O)O` (stereo not drawn), the percent viability stood at 19.9%.
As to `CCC(=O)OCC(=O)[C@@]1(OC(=O)CC)[C@@H](C)C[C@H]2[C@@H]3CCC4=CC(=O)C=C[C@]4(C)[C@@]3(Cl)[C@@H](O)C[C@@]21C`, the percent viability is 329%.
The figure for `CC(=O)Oc1cc(C(F)(F)F)ccc1C(=O)O` [triflusal] is 78.5%.
The result for `Nc1nc(=O)n([C@H]2C[C@H](O)[C@@H](CO)O2)cc1I` [ibacitabine] reads 242%; that for `NCCCC[C@H](NC(=O)[C@@H]1CCCN1C(=O)[C@@H]1CSSC[C@H](N)C(=O)N[C@@H](Cc2ccccc2)C(=O)N[C@@H](Cc2ccccc2)C(=O)N[C@@H](CCC(N)=O)C(=O)N[C@@H](CC(N)=O)C(=O)N1)C(=O)NCC(N)=O` [Felypressin], 302%; that for `CN1CCN(CC/C=C2/c3ccccc3Sc3ccc(S(=O)(=O)N(C)C)cc32)CC1`, 116%.
Take `CN(C)c1nc(N(C)C)nc(N(C)C)n1` [altretamine]: the percent viability was 341% and 202%.
The figure for `CC1(C)S[C@@H]2[C@H](NC(=O)[C@H](N)c3ccccc3)C(=O)N2[C@H]1C(=O)O` [Ampicillin] is 85.2%.
The figure for `CNC[C@H](O)[C@@H](O)[C@H](O)[C@H](O)CO` [meglumine] is 116%; for `C=COCC(F)(F)F` [fluroxene] it is 180%; for `CCCNS(=O)(=O)Nc1ncnc(OCCOc2ncc(Br)cn2)c1-c1ccc(Br)cc1` it is 301%.
`Cc1ccc(S(=O)(=O)NC(=O)NC2CCCCC2)cc1` [glycyclamide]: the percent viability worked out at 275%.
As for `c1ccc(C2CN3CCSC3=N2)cc1` (stereo not drawn), the percent viability was 14.3%.
With `CC(C)c1cc(C(C)C)c(-c2csc(N(CCN(C)C)Cc3cccnc3)n2)c(C(C)C)c1` [foropafant], the percent viability is 228%.
Turning to `CN1CCC(Nc2ncc3ncnc(Nc4ccc(F)c(Cl)c4)c3n2)CC1` [falnidamol], the percent viability came out at 259%.
Consider `C#C[C@]1(O)CC[C@H]2[C@@H]3CCC4=CC(=NO)CC[C@@H]4[C@H]3CC[C@@]21CC` (mixture of isomers) [norelgestromin], for which the percent viability is 200%.
